Measured values taken from article PMC11865524.
These are yes or no findings as the source states them, for the method shown. Binding seen in cells or lysates may run through a third protein. Some results given as binding are weak or reduced against the parent protein; the word gives no strength.

By UniProt entry, the sequences of proteins in these tests, tags left out.
UniProt P20823: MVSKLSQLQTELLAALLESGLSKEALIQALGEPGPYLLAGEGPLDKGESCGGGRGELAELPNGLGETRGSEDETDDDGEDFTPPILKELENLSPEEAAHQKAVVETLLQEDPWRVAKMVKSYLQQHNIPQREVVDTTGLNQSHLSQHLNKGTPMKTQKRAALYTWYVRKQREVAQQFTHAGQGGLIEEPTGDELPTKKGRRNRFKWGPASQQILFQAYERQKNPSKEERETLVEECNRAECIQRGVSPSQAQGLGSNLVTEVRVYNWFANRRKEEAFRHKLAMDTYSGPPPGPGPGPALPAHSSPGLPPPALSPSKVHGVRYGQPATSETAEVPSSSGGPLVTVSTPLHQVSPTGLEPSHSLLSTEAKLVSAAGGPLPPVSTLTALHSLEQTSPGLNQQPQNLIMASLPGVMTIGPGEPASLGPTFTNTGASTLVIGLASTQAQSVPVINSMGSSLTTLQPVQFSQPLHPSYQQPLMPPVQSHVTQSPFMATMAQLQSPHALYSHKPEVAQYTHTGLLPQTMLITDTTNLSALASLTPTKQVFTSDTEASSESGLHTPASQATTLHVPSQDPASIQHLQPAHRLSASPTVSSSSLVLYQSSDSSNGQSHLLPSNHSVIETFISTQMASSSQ
UniProt P29034: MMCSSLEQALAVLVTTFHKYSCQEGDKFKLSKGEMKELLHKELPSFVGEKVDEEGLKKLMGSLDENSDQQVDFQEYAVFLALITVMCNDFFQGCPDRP

Target: endogenous HNF1A (human (endogenous in 769-P and OSRC-2)) (UniProt P20823)
Assay: co-IP; endogenous proteins in 769-P cell lysate; anti-HNF1A antibody overnight at 4 °C, Protein A/G kit 3 h at room temperature, PBST washes, immunoblot

binding: binds
Substance: endogenous S100A2 (from UniProt P29034 1-98)
